# From publication PMC11609979 (Chemical Science, 2024)
# Tested on: A549 cells
# Experiment: Cell cytotoxicity
# Type: cell-based
# Settings: read-out: IC50 (±St. Dev.) Dark, no irradiation (dark), 72 h after treatment, n = 3
# Method in brief: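 A549 cells were exposed to test compound and viability was read 72 h after treatment. Dark samples were protected from light. IC50 was taken from dose–response curves, n = 3.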
structure (smiles),measurement,value
N.N.[Cl][Pt][Cl] [Cisplatin],IC50,8.1 µM
